The text below walks through data of patent US10124019B2, “Compositions and their use for removing cholesterol” (Cornell University, priority 2009, dated 2018).

The data set concerns WT (GM05659) and NPC (GM03123) human fibroblasts. Kind of data set: Sub-cellular localization and uptake of Alexa555-conjugated rhASM. The following applies: 3 μg/mL, 24 hours. Format: cell-based. How it is done:
WT (GM5659) and NPC (GM03123) Fbs were incubated with or without 3 μg/mL Alexa555-conjugated rhASM for 24 hours. To remove surface-bound label, the cells were further incubated for 15 min with a growth medium without the enzyme. Finally, the cells were washed with PBS, fixed with 1.5% PFA, and stained with filipin for imaging and quantification. […] Color overlays for filipin (green) and rhASM-Alexa555 (red) are shown in panels (C, F and I). The images in the inset are the zoomed color overlays of the region marked in (C, F and I). Scale bar=10 μm.
For identifying the localization of rhASM in the cells, recombinant enzyme was conjugated with Alexa555 (Invitrogen) according to the manufacturer's protocol. Normal (GM05659) and NPC1 human fibroblasts (GM03123) were incubated in a medium containing 3 μg/mL Alexa555-rhASM for 24 h prior to fixing and staining with filipin. Images were acquired using standard UV and TRITC filters for filipin and Alexa555-labeled rhASM, and quantified.
To ascertain whether exogenously added rhASM was localized and processed in late endosomal organelles, WT (GM05659) and NPC (GM03123) human fibroblasts were incubated for 24 hours in the absence or presence of 3 μg/mL of Alexa555-labeled rhASM. […] The cells were then washed, fixed and stained with filipin for imaging and quantification. […]

B1: rhASM-Alexa555: recombinant enzyme conjugated with Alexa555 (conjugate, UniProt P17405 47-631, looked up)
Sphingomyelin …: LALSDSRVLWAPAEAHPLSPQGHPARLHRIVPRLRDVFGWGNLTCPICKGLFTAINLGLKKEPNVARVGSVAIKLCNLLKIAPPAVCQSIVHLFEDDMVEVWRRSVLSPSEACGLLLGSTCGHWDIFSSWNISLPTVPKPPPKPPSPPAPGAPVSRILFLTDLHWDHDYLEGTDPDCADPLCCRRGSGLPPASRPGAGYWGEYSKCDLPLRTLESLLSGLGPAGPFDMVYWTGDIPAHDVWHQTRQDQLRALTTVTALVRKFLGPVPVYPAVGNHESTPVNSFPPPFIEGNHSSRWLYEAMAKAWEPWLPAEALRTLRIGGFYALSPYPGLRLISLNMNFCSRENFWLLINSTDPAGQLQWLVGELQAAEDRGDKVHIIGHIPPGHCLKSWSWNYYRIVARYENTLAAQFFGHTHVDEFEVFYDEETLSRPLAVAFLAPSATTYIGLNPGYRVYQIDGNYSGSSHVVLDHETYILNLTQANIPGAIPHWQLLYRARETYGLPNTLPTAWHNLVYRMRGDMQLFQTFWFLYHKGHPPSEPCGTPCRLATLCAQLSARADSPALCRHLMPDGSLPEAQSLWPRPLFC
modifications: Alexa555 label
On to B1, for which the sub-cellular localization entry was “specifically localized to cholesterol-laden storage organelles”. The “uptake in the presence of excess mannose-6-phosphate” value (10 mM mannose-6-phosphate) is “completely blocked”.
